# Data as given in the supplement of paper PMC10849652.
# Chains of the proteins cited; added tags and fusions are not shown. Lines headed by an entry give the natural chain unless they say otherwise; changes in a name come on top.
# UniProt O96017, whole entry, looked up: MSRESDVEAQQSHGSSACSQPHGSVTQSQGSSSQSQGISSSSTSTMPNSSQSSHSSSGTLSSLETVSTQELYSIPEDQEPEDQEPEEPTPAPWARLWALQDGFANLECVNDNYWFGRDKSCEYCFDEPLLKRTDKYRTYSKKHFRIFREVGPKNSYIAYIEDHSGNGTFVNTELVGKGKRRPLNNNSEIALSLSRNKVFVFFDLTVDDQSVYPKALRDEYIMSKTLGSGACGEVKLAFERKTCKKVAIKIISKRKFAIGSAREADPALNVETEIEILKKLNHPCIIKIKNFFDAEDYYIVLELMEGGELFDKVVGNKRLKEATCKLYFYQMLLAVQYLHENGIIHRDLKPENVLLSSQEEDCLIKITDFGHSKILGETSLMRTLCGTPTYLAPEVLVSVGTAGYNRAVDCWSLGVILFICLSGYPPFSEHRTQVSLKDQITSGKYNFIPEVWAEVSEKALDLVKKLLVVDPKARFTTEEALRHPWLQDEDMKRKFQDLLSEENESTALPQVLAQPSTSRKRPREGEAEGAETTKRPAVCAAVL
# UniProt P23528, whole entry, looked up: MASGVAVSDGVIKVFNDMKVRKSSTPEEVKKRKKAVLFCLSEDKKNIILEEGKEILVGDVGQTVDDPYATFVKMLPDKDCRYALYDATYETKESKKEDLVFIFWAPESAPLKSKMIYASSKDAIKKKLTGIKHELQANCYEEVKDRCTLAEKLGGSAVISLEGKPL
# UniProt Q9H5V8, whole entry, looked up: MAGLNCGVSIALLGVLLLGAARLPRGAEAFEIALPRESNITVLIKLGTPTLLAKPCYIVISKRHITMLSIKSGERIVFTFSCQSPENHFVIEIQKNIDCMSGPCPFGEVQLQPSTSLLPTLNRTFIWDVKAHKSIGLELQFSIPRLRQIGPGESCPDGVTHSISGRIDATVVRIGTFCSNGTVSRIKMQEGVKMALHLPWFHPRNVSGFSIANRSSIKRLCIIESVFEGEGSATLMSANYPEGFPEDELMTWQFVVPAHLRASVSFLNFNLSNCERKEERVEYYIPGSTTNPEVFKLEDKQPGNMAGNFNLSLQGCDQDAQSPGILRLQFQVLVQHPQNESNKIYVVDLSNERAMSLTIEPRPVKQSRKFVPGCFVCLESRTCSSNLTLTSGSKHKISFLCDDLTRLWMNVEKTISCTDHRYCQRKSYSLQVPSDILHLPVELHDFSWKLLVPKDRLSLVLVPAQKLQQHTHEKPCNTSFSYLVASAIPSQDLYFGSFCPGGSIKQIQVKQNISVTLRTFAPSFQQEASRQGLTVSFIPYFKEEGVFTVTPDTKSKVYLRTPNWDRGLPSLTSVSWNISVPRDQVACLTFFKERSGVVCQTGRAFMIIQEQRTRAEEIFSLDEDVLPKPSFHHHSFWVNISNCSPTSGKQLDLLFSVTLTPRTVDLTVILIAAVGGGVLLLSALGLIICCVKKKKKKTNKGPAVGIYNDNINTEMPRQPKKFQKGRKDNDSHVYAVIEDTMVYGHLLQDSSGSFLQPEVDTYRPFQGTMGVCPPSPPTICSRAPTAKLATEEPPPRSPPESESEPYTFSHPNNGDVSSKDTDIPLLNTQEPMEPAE
# UniProt O95674: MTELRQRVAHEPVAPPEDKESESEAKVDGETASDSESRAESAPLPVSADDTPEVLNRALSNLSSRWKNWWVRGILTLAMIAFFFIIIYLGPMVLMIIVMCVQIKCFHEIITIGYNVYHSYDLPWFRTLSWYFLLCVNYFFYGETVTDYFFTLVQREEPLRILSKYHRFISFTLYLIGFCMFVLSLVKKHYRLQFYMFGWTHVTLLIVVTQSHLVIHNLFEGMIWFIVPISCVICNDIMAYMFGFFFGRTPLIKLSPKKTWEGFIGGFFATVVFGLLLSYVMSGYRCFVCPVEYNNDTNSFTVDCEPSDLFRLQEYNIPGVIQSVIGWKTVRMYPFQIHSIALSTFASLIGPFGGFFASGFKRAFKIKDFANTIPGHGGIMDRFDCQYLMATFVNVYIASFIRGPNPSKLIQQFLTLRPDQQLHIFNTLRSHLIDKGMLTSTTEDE
# UniProt Q5VT25: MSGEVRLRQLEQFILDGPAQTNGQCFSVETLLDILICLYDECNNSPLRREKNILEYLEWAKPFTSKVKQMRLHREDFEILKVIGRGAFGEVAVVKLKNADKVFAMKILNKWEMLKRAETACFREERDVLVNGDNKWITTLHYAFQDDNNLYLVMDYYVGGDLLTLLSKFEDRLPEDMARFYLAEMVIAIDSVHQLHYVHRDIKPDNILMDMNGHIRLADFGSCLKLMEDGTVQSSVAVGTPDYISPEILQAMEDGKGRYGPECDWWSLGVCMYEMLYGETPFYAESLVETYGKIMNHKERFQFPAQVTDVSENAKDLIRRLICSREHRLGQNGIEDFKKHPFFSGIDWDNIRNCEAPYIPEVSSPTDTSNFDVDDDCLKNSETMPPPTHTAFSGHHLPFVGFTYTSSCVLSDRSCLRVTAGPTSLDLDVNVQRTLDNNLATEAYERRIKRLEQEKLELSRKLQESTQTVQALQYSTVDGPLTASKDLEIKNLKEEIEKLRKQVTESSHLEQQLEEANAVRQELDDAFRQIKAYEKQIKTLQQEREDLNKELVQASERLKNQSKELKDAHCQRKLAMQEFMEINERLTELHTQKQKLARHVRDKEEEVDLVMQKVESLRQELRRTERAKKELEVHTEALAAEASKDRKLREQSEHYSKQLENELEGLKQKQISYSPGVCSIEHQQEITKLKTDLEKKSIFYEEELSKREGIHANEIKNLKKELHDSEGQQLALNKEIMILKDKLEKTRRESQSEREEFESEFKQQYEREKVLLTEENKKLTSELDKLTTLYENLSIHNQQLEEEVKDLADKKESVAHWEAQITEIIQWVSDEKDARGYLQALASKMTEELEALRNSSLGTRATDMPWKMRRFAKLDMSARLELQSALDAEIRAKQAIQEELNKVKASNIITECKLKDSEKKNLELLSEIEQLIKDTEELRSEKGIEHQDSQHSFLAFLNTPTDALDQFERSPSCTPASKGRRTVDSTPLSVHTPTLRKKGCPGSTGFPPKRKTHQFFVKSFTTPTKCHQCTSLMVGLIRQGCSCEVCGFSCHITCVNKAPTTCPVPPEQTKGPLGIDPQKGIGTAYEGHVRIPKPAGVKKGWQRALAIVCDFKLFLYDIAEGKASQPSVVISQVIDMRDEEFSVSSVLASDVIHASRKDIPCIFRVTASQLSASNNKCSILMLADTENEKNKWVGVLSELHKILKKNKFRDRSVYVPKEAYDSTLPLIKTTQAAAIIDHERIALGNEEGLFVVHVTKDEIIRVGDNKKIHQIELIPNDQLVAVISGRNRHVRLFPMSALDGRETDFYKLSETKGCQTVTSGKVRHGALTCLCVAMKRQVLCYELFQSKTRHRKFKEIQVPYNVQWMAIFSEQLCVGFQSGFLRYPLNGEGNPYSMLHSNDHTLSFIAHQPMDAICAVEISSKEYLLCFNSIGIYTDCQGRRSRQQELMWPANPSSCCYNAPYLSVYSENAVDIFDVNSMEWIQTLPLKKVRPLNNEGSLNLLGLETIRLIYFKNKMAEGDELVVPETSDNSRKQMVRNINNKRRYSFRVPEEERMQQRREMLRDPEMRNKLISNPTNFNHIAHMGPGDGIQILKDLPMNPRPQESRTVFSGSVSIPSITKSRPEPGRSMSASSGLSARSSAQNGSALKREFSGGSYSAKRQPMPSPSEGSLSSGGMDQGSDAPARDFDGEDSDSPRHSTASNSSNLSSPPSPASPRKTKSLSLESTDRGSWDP
# UniProt Q9Y6K0: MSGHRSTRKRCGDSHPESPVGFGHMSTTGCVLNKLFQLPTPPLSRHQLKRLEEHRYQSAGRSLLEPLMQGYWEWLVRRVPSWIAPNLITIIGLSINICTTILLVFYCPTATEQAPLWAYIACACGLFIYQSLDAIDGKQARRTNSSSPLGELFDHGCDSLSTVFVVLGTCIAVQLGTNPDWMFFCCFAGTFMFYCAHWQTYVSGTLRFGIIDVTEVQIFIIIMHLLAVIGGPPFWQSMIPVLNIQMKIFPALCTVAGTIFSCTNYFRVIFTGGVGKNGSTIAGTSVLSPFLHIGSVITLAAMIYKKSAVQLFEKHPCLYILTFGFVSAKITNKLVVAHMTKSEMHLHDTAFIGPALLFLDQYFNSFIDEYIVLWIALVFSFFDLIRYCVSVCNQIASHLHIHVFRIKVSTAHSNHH
# UniProt Q96JM3: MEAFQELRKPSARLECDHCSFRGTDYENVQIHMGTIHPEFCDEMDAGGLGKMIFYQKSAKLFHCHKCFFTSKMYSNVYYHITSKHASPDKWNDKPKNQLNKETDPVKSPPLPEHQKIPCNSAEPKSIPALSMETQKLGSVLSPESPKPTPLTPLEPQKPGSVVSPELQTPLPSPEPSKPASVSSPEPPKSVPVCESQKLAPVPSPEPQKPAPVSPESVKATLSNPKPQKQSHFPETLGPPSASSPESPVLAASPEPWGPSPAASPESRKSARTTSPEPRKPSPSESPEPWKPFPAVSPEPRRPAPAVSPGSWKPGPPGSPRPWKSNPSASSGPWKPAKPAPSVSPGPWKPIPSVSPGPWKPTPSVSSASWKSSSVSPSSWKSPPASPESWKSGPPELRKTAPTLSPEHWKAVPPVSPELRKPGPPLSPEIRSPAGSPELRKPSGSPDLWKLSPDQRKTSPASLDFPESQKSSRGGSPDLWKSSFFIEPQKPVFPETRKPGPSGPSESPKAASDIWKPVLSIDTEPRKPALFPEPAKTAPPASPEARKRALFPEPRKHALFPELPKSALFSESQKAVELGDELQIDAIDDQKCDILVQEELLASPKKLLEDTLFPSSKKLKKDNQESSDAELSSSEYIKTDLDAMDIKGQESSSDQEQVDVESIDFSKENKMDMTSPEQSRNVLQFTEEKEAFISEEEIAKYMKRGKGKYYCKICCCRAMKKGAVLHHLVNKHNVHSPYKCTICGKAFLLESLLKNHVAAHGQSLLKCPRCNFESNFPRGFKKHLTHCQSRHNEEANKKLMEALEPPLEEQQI
# UniProt Q9UFW8: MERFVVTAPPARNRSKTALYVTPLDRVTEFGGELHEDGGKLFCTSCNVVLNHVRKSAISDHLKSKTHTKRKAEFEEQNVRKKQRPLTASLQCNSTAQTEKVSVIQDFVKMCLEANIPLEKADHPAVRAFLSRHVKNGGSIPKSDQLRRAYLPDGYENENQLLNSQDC
# UniProt Q96G23: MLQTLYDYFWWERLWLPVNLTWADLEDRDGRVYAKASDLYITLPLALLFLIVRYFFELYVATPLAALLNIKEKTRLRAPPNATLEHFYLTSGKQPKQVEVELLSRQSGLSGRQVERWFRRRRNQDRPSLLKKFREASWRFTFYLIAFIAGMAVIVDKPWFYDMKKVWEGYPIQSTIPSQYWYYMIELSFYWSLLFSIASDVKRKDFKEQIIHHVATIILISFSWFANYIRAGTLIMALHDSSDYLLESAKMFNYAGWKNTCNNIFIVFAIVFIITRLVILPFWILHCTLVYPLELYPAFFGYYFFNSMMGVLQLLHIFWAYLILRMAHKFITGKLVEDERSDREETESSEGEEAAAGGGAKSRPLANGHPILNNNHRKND
# UniProt Q96CF2: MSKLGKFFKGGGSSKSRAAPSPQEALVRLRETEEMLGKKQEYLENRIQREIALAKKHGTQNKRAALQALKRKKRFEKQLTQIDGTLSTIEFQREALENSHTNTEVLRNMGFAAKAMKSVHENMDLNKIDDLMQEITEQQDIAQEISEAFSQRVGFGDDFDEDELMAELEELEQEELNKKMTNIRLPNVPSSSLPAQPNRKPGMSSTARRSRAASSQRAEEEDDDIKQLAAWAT
# UniProt O95319: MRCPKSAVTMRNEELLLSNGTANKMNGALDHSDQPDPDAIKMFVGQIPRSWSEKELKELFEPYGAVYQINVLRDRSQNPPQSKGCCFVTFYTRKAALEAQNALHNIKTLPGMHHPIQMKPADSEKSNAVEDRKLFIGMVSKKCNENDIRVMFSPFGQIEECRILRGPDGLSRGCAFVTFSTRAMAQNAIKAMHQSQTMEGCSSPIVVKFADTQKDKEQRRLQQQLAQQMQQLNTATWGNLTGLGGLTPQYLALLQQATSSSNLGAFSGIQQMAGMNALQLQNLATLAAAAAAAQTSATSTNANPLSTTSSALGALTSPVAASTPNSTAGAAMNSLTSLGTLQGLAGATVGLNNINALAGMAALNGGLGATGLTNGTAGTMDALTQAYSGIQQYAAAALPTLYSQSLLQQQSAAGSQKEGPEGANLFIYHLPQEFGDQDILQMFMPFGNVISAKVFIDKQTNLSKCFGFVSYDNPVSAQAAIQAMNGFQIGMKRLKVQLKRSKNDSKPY
# UniProt Q99618: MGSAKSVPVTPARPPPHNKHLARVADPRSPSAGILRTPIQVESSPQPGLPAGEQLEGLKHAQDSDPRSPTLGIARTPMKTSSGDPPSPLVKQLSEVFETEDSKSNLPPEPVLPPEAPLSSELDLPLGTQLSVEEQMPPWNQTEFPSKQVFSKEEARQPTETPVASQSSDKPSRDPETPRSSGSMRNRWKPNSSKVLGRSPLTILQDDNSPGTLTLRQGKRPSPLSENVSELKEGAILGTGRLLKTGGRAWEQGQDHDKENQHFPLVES
# The list shows a part of the results.
# Compound: Cc1ccc(NC(=O)c2ccc(CN3CC[C@H](N(C)C)C3)c(C(F)(F)F)c2)cc1Nc1nccc(-c2cncnc2)n1 [bafetinib]
# Assay: log2 fold change, soluble protein after heating vs DMSO (PISA); higher = thermal stabilisation; K562 cells, 10 uM, 30 min; active = over 0.2 and 3.5 SD of the protein, either way, in both replicates (recomputed)
# Outline: (§1)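 K562 cells at 2×10^6 cells/mL were given 10 μM compound for 30 min. Aliquots then went through 3 min of heating across 48°C-58°C, were pooled, and were extracted in PBS with 0.5% NP-40 at 4°C, and the supernatant after 21,000xg for 90 min was quantified by TMTpro 16plex LC-MS/MS with channel sums equalised. Thermal stability relative to control samples, from duplicates, is given as log2 fold change.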
row,Target,log2 fold change
1,CFL2 (UniProt Q9Y281),inactive: -0.007
2,CHEK2 isoform 9 (UniProt O96017),inactive: -0.034
3,CFL1 (UniProt P23528),inactive: -0.027
4,CDCP1 (UniProt Q9H5V8),inactive: 0.015
5,CDS2 (UniProt O95674),inactive: -0.068
6,CDC42BPA isoform 6 (UniProt Q5VT25),inactive: 0.051
7,CEPT1 (UniProt Q9Y6K0),inactive: -0.048
8,CHAMP1 (UniProt Q96JM3),inactive: -0.134
9,CGGBP1 (UniProt Q9UFW8),inactive: -0.027
10,CDK5RAP1 (UniProt Q96SZ6),inactive: -0.052
11,CERS2 (UniProt Q96G23),inactive: -0.177
12,CDK16 isoform 2 (UniProt Q00536),inactive: 0.038
13,CDCA5 (UniProt Q96FF9),inactive: 0.072
14,CHMP4C (UniProt Q96CF2),inactive: -0.01
15,CELF2 isoform 3 (UniProt O95319),inactive: 0.014
16,CERS5 (UniProt Q8N5B7),inactive: -0.025
17,CDCA3 (UniProt Q99618),inactive: -0.057

# Compound: Cc1cccc(CC(=O)N2CCc3c2ccc(-c2cn(C)c4ncnc(N)c24)c3F)n1
# Assay: as above
# Outline: as §1
row,Target,log2 fold change
1,CHIC2 (UniProt Q9UKJ5),inactive: -0.044
2,CFDP1 (UniProt Q9UEE9),inactive: -0.042
3,CHMP2A (UniProt O43633),inactive: 0.035
4,CHD4 isoform 2 (UniProt Q14839),inactive: -0.018
5,CEP76 (UniProt Q8TAP6),inactive: 0.018
6,CDK5RAP3 isoform 4 (UniProt Q96JB5),inactive: 0.122
7,CHKA (UniProt P35790),inactive: -0.023
8,CDC73 (UniProt Q6P1J9),inactive: -0.366
9,CHCHD3 (UniProt Q9NX63),inactive: -0.014
10,CDKAL1 (UniProt Q5VV42),inactive: 0.01
11,CDK13 (UniProt Q14004),inactive: -0.018
12,CFAP20 (UniProt Q9Y6A4),inactive: 0.013
13,CHD6 (UniProt Q8TD26),inactive: -0.33
14,CHMP4A isoform 2 (UniProt Q9BY43),inactive: -0.062
15,CHMP4B (UniProt Q9H444),inactive: 0.061
16,CDK11B (UniProt P21127),inactive: -0.009
17,CHMP3 (UniProt Q9Y3E7),inactive: -0.014
18,CFAP298 (UniProt P57076),inactive: 0.178
19,CETN2 (UniProt P41208),inactive: -0.131
20,CHAC2 (UniProt Q8WUX2),inactive: -0.003

row,Target,log2 fold change
1,CETN3 (UniProt O15182),active: -0.249
2,CHD3 isoform 3 (UniProt Q12873),inactive: 0.004
3,CFL2 (UniProt Q9Y281),inactive: 0.017
4,CHEK2 isoform 9 (UniProt O96017),inactive: 0.079
5,CFL1 (UniProt P23528),inactive: 0.02
6,CDCP1 (UniProt Q9H5V8),inactive: 0.011
7,CDS2 (UniProt O95674),inactive: 0.008
8,CDC42BPA isoform 6 (UniProt Q5VT25),inactive: 0.102
9,CEPT1 (UniProt Q9Y6K0),inactive: 0.032
10,CHAMP1 (UniProt Q96JM3),inactive: 0.049
11,CGGBP1 (UniProt Q9UFW8),inactive: 0.025
12,CDK5RAP1 (UniProt Q96SZ6),inactive: -0.058
13,CERS2 (UniProt Q96G23),inactive: 0.064
14,CDK16 isoform 2 (UniProt Q00536),inactive: -0.047
15,CDCA5 (UniProt Q96FF9),inactive: -0.027
16,CHMP4C (UniProt Q96CF2),inactive: -0.003
17,CELF2 isoform 3 (UniProt O95319),inactive: -0.005
18,CERS5 (UniProt Q8N5B7),inactive: -0.032
19,CDCA3 (UniProt Q99618),inactive: -0.074

# Compound: Cc1cn(-c2cc(NC(=O)c3ccc(C)c(Nc4nccc(-c5cccnc5)n4)c3)cc(C(F)(F)F)c2)cn1 [nilotinib]
# Assay: as above
# Outline: as §1
row,Target,log2 fold change
1,CHIC2 (UniProt Q9UKJ5),inactive: 0.02
2,CFDP1 (UniProt Q9UEE9),inactive: -0.007
3,CHMP2A (UniProt O43633),inactive: 0.021
4,CHD4 isoform 2 (UniProt Q14839),inactive: -0.143
5,CEP76 (UniProt Q8TAP6),inactive: -0.016
6,CDK5RAP3 isoform 4 (UniProt Q96JB5),inactive: -0.094
7,CHKA (UniProt P35790),inactive: 0.178
8,CDC73 (UniProt Q6P1J9),inactive: -0.206
9,CHCHD3 (UniProt Q9NX63),inactive: -0.016
10,CDKAL1 (UniProt Q5VV42),inactive: -0.003
11,CDK13 (UniProt Q14004),inactive: -0.024
12,CFAP20 (UniProt Q9Y6A4),inactive: 0.023
13,CHD6 (UniProt Q8TD26),inactive: 0.168
14,CHMP4A isoform 2 (UniProt Q9BY43),inactive: 0.01
15,CHMP4B (UniProt Q9H444),inactive: -0.027
16,CDK11B (UniProt P21127),inactive: 0.106
17,CHMP3 (UniProt Q9Y3E7),inactive: 0.011
18,CFAP298 (UniProt P57076),inactive: -0.04
19,CETN2 (UniProt P41208),inactive: 0.071
20,CHAC2 (UniProt Q8WUX2),inactive: 0.078

row,Target,log2 fold change
1,CETN3 (UniProt O15182),inactive: -0.051
2,CHD3 isoform 3 (UniProt Q12873),inactive: -0.093
3,CFL2 (UniProt Q9Y281),inactive: 0.042
4,CHEK2 isoform 9 (UniProt O96017),inactive: -0.019
5,CFL1 (UniProt P23528),inactive: 0.067
6,CDCP1 (UniProt Q9H5V8),inactive: 0.016
7,CDS2 (UniProt O95674),inactive: 0.022
8,CDC42BPA isoform 6 (UniProt Q5VT25),inactive: 0.28
9,CEPT1 (UniProt Q9Y6K0),inactive: -0.052
10,CHAMP1 (UniProt Q96JM3),inactive: 0
11,CGGBP1 (UniProt Q9UFW8),inactive: 0
12,CDK5RAP1 (UniProt Q96SZ6),inactive: 0
13,CERS2 (UniProt Q96G23),inactive: -0.128
14,CDK16 isoform 2 (UniProt Q00536),inactive: 0.013
15,CDCA5 (UniProt Q96FF9),inactive: 0.102
16,CHMP4C (UniProt Q96CF2),inactive: -0.03
17,CELF2 isoform 3 (UniProt O95319),inactive: -0.001
18,CERS5 (UniProt Q8N5B7),inactive: -0.008
19,CDCA3 (UniProt Q99618),inactive: 0.03
